{
  "source": "the supplement of paper PMC10338343",
  "note": "± gives the standard deviation. The entries are a selection whose mix differs from that of the whole data set. Many of these values have a large error.",
  "data": [
    {"tested_on": "MIWI (PIWIL1) piRISC loaded with Kctd7 piRNA (30 nt)", "experiment": "pre-steady-state target cleavage rate (min^-1); MIWI and MILI are mouse PIWI proteins and EfPiwi is from a freshwater sponge; tags in brackets are library labels; higher = faster piRNA-guided slicing of the target", "settings": "guide: Kctd7 piRNA 5'p-UGUUAAUCUCUCAGAGAAGGUGACAGUGAU; auxiliary factor: 500 nM mouse GTSF1", "outline": "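Cleave-'n-Seq: a transcribed, DNA-blocked target RNA library (0.1 nM) was mixed with 1 nM active affinity-purified piRISC carrying one synthetic guide, with or without 500 nM GTSF1 partner protein, in HEPES–potassium acetate buffer at 33 °C for 0–8 or 0–960 min. Uncleaved targets were sequenced and normalised to depth and to weakly complementary targets. Three trials were pooled, and k3 was capped at 0.0001 min^-1. The pre-steady-state cleavage rate came from a burst-and-steady-state fit.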", "values": [
      {"sequence": "UAGUGAGUCAGGAUCUCUGAGAGAUUUUGA", "pre-steady-state target cleavage rate": "0.000558 ± 0.013"},
      {"sequence": "UAGUCUGUCACCUUCUCUGAGACUUUAUGA", "pre-steady-state target cleavage rate": "0.00143 ± 0.0048"},
      {"sequence": "UAGUGACAGUGCUUCUCUGAGCGAUUAACA", "pre-steady-state target cleavage rate": "0.00288 ± 0.0031"},
      {"sequence": "AUCACUGUCACCUUCUCUGAGAGAUUAACC [g2:g30:cont:t1C]", "pre-steady-state target cleavage rate": "0.387 ± 0.032"},
      {"sequence": "UAGUGACACACCUUCUCUGAGAGUAAAUGA", "pre-steady-state target cleavage rate": "0.00181 ± 0.0062"},
      {"sequence": "UUCACUGUCACCUUCUCACUGAGAUAUUGA", "pre-steady-state target cleavage rate": "0.00236 ± 0.0051"},
      {"sequence": "UAGACUGUCACCUUCUCUGAGACAUUUACA", "pre-steady-state target cleavage rate": "0.00137 ± 0.0045"},
      {"sequence": "UAGUGACAGACCUUCUCAGAGAGAAUAACA", "pre-steady-state target cleavage rate": "0.00157 ± 0.0071"},
      {"sequence": "UAGUGACAGUGGAAGAGACACUGAUUAACA", "pre-steady-state target cleavage rate": "0.000425 ± 0.014"},
      {"sequence": "UAGUGACAGACCAUCUCAGAGAGAUUAACA", "pre-steady-state target cleavage rate": "0.00164 ± 0.0065"},
      {"sequence": "UAGUGACAGUCCUUCUCUGAGAGAUAUAGA", "pre-steady-state target cleavage rate": "0.000608 ± 0.008"},
      {"sequence": "UUCACUGCUCACCUUCUCUGAGAGAUUAACA", "pre-steady-state target cleavage rate": "0.669 ± 0.044"},
      {"sequence": "UAGUGACAGUGAUUCUCUGAGAGAUUAACA", "pre-steady-state target cleavage rate": "0.00102 ± 0.0047"},
      {"sequence": "UAGUGACAGUGCUUCUCUGAGAGUAUAACA", "pre-steady-state target cleavage rate": "0.000117 ± 0.024"},
      {"sequence": "UAGUGACAGUGCUUCUCGGAGAGAUUAACA", "pre-steady-state target cleavage rate": "0.000763 ± 0.008"},
      {"sequence": "UAGACUGUCACCUUCUCUGACAGAAUAACA", "pre-steady-state target cleavage rate": "0.00201 ± 0.0041"},
      {"sequence": "UAGUGACACACCUAGUCUGAGAGAUUAAGA", "pre-steady-state target cleavage rate": "0.000202 ± 0.033"},
      {"sequence": "UAGUGAGUCACCUUCUCUGACUCAUAUUGA", "pre-steady-state target cleavage rate": "0.00105 ± 0.0086"},
      {"sequence": "UACACUGUCACGAACUCUGAGAGAUUAAGA", "pre-steady-state target cleavage rate": "0.00157 ± 0.0067"},
      {"sequence": "UAGUGACAGUGCUUCUCUAGAGAUUAACA", "pre-steady-state target cleavage rate": "0.000922 ± 0.0059"},
      {"sequence": "UAGUGACACACCUUGAGUGAGAGAUUUUGA", "pre-steady-state target cleavage rate": "0.00122 ± 0.0096"},
      {"sequence": "UAGUGAGUCACCAAGUCUGAGAGAUUUUGA", "pre-steady-state target cleavage rate": "0.000323 ± 0.027"},
      {"sequence": "UAGUGACAGUCCUUCUCUGAGAGAUAAUGA", "pre-steady-state target cleavage rate": "0.000426 ± 0.011"},
      {"sequence": "UAGUGACAGUCCUUCUCUGAGUGUUUAACA", "pre-steady-state target cleavage rate": "0.000488 ± 0.0085"},
      {"sequence": "UACACUGUCACCUUCUCACUGAGAUAUUGA", "pre-steady-state target cleavage rate": "0.00182 ± 0.0084"},
      {"sequence": "UAGACUGUCACCUUCUGAGAGAGAUUUUGA", "pre-steady-state target cleavage rate": "0.000938 ± 0.0072"},
      {"sequence": "UAGUGACAGUGCUUCUGUGAGAGAUAAACA", "pre-steady-state target cleavage rate": "0.00266 ± 0.0034"},
      {"sequence": "UAGUCUGUCAGGUUCUCUGAGAGAUUUUGA", "pre-steady-state target cleavage rate": "0.000502 ± 0.0095"},
      {"sequence": "UAGUGACACACCUUCUCUGUGAGAUAUUGA", "pre-steady-state target cleavage rate": "0.0018 ± 0.0067"},
      {"sequence": "UAGUGACUCACCUUCUCACUCUCUAAUUGA [g14:g23:cont:t1A]", "pre-steady-state target cleavage rate": "0.000513 ± 0.011"},
      {"sequence": "UAGUGACUCACGAACUCUGAGAGAUUAACA", "pre-steady-state target cleavage rate": "0.000159 ± 0.024"},
      {"sequence": "AUCACUGUCACCUUCACUGAGAGAUUUUGA", "pre-steady-state target cleavage rate": "0.339 ± 0.082"},
      {"sequence": "UAGUGACAGUCGUUCACUGAGAGAUUAACA", "pre-steady-state target cleavage rate": "0.000293 ± 0.033"},
      {"sequence": "UAGUCUGUCUGCUUCUCUGAGAGAUUUUGA", "pre-steady-state target cleavage rate": "0.000182 ± 0.032"},
      {"sequence": "UAGUGACAGACGUUCUCUGAGAGAAUAACA", "pre-steady-state target cleavage rate": "0.00143 ± 0.0057"},
      {"sequence": "AUCUCUGUCACCUUCUCUGAGAGAUUAACA", "pre-steady-state target cleavage rate": "0.713 ± 0.032"},
      {"sequence": "UUCACUGUCACCUUCUCUGACUCAUAUUGA", "pre-steady-state target cleavage rate": "0.0012 ± 0.0051"},
      {"sequence": "UAGUGACUCACCUUCAGUGAGAGAUAUUGA", "pre-steady-state target cleavage rate": "0.000713 ± 0.013"},
      {"sequence": "UAGUGACAGACGUUCUCUGAGACAUUAACA", "pre-steady-state target cleavage rate": "0.000811 ± 0.0077"},
      {"sequence": "UAGUGACAGUGCUUCUCAGAGAGAUUAACA", "pre-steady-state target cleavage rate": "0.00164 ± 0.0049"},
      {"sequence": "UAGUGACUCUCCUUCUCUGAGAGAUAUUGA", "pre-steady-state target cleavage rate": "0.00117 ± 0.0048"},
      {"sequence": "UAGUGAGUCACCUUCUCUGACUCAUUUUGA", "pre-steady-state target cleavage rate": "0.00135 ± 0.0088"},
      {"sequence": "UAGUGACACACCUUCUGCUGAGAGAUUAACA", "pre-steady-state target cleavage rate": "0.00071 ± 0.021"},
      {"sequence": "UAGACAGUCACCUUCUCUGAGAGAUUAACA", "pre-steady-state target cleavage rate": "0.656 ± 0.033"},
      {"sequence": "UAGUGACAGUGCUUCUCUGUGAGAUUAUCA", "pre-steady-state target cleavage rate": "0.00204 ± 0.0033"},
      {"sequence": "UAGUGACAGUGGAAGACUGAGAGAUUCAACA", "pre-steady-state target cleavage rate": "0.000173 ± 0.022"},
      {"sequence": "AUCACUAGUCACCUUCUCUGAGAGAUUAACA", "pre-steady-state target cleavage rate": "0.724 ± 0.04"},
      {"sequence": "UAGUGACAGUGCUUCUUGAGAGAUUAACA", "pre-steady-state target cleavage rate": "0.000752 ± 0.012"},
      {"sequence": "UAGUGACAGUGGAACUCUGACUGAUUAACA", "pre-steady-state target cleavage rate": "0.00011 ± 0.029"},
      {"sequence": "UAGUGACAGACCUUCUCUCAGAGAAUAACA", "pre-steady-state target cleavage rate": "0.00127 ± 0.0087"},
      {"sequence": "UAGUGACAGACCUUCAGAGAGAGAUUAAGA", "pre-steady-state target cleavage rate": "0.000258 ± 0.052"},
      {"sequence": "UACAGUGUCACCUUCUCUGAGAGAUUAACA", "pre-steady-state target cleavage rate": "0.663 ± 0.034"},
      {"sequence": "UAGUGACAGUGCUUCACUGAGAGAUAAACA", "pre-steady-state target cleavage rate": "0.000838 ± 0.0091"},
      {"sequence": "UAGUGUGUCACCUUCUCUGAGAGAUUAUCA", "pre-steady-state target cleavage rate": "0.219 ± 0.026"},
      {"sequence": "UAGUGACAGACCUUCUCUGAGAGUUUAUCA", "pre-steady-state target cleavage rate": "0.00293 ± 0.0048"},
      {"sequence": "UAGUGACAGUGGAAGUCUGAGUCAUUAACA", "pre-steady-state target cleavage rate": "0.000187 ± 0.029"},
      {"sequence": "UAGUGACAGUGGAACUCUGAGACUUUAACA", "pre-steady-state target cleavage rate": "0.00154 ± 0.011"},
      {"sequence": "AUCACUGUCACCUUCUGACUCUCUAAUUGA [g15:g30:cont:t1A]", "pre-steady-state target cleavage rate": "0.000505 ± 0.0078"},
      {"sequence": "UAGACUGUCACCUUCUCUGAGACUAAUUGA", "pre-steady-state target cleavage rate": "0.000117 ± 0.017"},
      {"sequence": "UAGACAGUCACCUUCUCUGAGAGAUUAUCA", "pre-steady-state target cleavage rate": "0.252 ± 0.029"},
      {"sequence": "UAGUGACAGUCCUUCUCUGGAGAGAUUAACA", "pre-steady-state target cleavage rate": "0.000122 ± 0.017"},
      {"sequence": "UAGUGACAGUGGAUCUCUGAGAAAUUAACA", "pre-steady-state target cleavage rate": "< 0.0001"},
      {"sequence": "UAGUGACAGUGGAACUCUGAAAGAUUAACA", "pre-steady-state target cleavage rate": "0.000869 ± 0.015"},
      {"sequence": "UAGUGACUCACCAACUCUGAGAGAUUAUGA", "pre-steady-state target cleavage rate": "0.000235 ± 0.018"},
      {"sequence": "UAGUGACAGUCCAUCUCUGACAGAUUAACA", "pre-steady-state target cleavage rate": "0.000233 ± 0.027"},
      {"sequence": "UAGUGACACACCUUGUCUGAGAGAUUUUGA", "pre-steady-state target cleavage rate": "0.00126 ± 0.0057"},
      {"sequence": "UACACUGUCACCUAGACUGAGAGAUUAAGA", "pre-steady-state target cleavage rate": "0.00191 ± 0.0086"},
      {"sequence": "UAGUGACACACCUUCACUGAGAGAUAUUGA", "pre-steady-state target cleavage rate": "0.00218 ± 0.007"},
      {"sequence": "UAGUGACAGUGCUUCACUGAGACAUUAACA", "pre-steady-state target cleavage rate": "0.000533 ± 0.012"},
      {"sequence": "UAGUCUGUCACCUUCUCUGAGACAUAUUGA", "pre-steady-state target cleavage rate": "0.00133 ± 0.0059"},
      {"sequence": "UAGUGACUCACCUUCUCUGACUCAUUAUGA", "pre-steady-state target cleavage rate": "0.000226 ± 0.017"}
    ]}
  ]
}
